In doi:10.1101/2021.09.16.460522 one finds binding data, which are given here for one substance.

Protein sequences, listed by entry. Tags and fused reporters are not part of them. Residues count along the entry.
UniProt P47878, residues 28-292: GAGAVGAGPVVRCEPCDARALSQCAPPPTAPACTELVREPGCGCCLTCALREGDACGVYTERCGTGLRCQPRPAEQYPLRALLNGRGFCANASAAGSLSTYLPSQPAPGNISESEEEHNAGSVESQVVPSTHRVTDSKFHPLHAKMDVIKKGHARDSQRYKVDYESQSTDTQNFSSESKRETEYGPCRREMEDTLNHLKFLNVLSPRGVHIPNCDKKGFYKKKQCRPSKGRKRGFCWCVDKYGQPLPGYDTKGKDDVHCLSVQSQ
UniProt P08025, residues 49-118: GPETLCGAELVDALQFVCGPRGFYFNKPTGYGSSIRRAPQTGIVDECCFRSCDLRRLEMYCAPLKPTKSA

The assay addresses C-terminus FLAG epitope-tagged mouse IGFBP3 (mouse) (UniProt P47878). Kind of assay: affinity purification with mass spectrometry.

These are yes or no findings as the source states them, for the method shown. In cells and extracts the contact can be indirect. A yes stands for co-enrichment or nearness to the bait. Other partners may have been found. A no says only that the protein was not detected with the bait.

As to “IGF1 (from UniProt P08025 49-118) (ligand)”, the binding entry is reported as “no binding”.
